Key:
[1] = general procedure: Fmoc solid-phase peptide synthesis; 2-chlorotrityl resin (Rapp Polymere, 1.21 mmol/g) for folate carriers; Rink amide resin for LHRH derivatives; HATU (folate carriers); TBTU (LHRH derivatives); settings: for conjugation yield: conjugation step, TFA salt
[2] = general procedure: Fmoc solid-phase peptide synthesis; Rapp S RAM resin; HATU (folate carriers); TBTU (LHRH derivatives); settings: whole synthesis, scale 100 µmol, TFA salt

In the case of “(7S,10S,13S,16S)-16-((((9H-fluoren-9-yl)methoxy)carbonyl)amino)-1-(4-azidophenyl)-10,13-bis(carboxymethyl)-7-(methoxycarbonyl)-1,9,12,15-tetraoxo-2,8,11,14-tetraazaoctadecan-18-oic acid”, the step yield ([1]; coupling step) is reported as 52%.

In the case of D-Orn-N3-Gose, the isolated mass [2] is reported as 20 mg.

With L-Orn-LHRH-16R-Aminoratjadone the conjugation yield [1] was 70%.

In the case of “L-Orn-LHRH-Val-Cit-pABA-16R-Aminoratjadone”, the conjugation yield [1] is reported as 45%.
